Percent effect of library compounds

Chains of the proteins cited; added tags and fusions are not shown. Residues count along the entry.
UniProt P9WPC5, whole entry: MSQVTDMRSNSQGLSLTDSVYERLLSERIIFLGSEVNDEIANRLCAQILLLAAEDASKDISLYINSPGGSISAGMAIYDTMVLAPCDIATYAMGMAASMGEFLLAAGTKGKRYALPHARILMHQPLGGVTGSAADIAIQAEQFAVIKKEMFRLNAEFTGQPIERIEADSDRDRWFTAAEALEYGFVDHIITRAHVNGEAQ
UniProt P9WPC3, whole entry partner: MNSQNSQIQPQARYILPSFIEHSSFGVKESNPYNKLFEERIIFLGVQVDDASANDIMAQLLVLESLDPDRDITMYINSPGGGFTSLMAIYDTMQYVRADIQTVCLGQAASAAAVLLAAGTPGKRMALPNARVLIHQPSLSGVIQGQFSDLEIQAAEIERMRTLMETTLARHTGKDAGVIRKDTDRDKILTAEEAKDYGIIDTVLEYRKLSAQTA
UniProt Q4DA54, 1-478: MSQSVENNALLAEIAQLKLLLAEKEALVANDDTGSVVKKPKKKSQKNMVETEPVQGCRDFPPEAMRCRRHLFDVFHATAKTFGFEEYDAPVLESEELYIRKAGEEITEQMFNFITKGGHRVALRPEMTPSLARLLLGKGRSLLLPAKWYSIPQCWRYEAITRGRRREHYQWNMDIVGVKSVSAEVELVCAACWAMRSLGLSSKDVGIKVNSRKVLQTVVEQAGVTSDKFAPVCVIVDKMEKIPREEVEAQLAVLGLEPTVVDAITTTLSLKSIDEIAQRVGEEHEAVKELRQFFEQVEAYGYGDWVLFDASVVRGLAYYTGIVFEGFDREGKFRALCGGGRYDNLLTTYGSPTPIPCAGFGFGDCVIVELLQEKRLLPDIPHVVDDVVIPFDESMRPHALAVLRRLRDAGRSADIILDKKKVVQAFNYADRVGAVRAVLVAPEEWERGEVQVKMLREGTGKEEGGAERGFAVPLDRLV
UniProt Q8IDJ8, 1-583: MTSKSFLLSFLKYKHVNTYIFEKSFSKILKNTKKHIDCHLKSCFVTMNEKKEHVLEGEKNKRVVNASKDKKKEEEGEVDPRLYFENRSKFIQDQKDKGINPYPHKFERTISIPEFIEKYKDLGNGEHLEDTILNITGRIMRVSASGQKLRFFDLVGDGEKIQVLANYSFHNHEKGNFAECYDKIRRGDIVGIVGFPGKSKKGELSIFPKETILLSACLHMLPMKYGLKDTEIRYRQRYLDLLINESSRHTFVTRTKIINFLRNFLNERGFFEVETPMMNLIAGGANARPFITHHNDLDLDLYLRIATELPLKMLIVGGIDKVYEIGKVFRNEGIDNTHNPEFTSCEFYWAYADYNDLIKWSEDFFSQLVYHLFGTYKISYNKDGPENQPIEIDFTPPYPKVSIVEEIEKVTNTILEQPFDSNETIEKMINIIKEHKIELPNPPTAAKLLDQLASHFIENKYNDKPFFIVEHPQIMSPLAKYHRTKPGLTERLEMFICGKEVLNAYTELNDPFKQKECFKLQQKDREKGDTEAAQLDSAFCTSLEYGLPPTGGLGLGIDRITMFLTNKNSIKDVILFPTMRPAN
UniProt P9WNZ1, whole entry: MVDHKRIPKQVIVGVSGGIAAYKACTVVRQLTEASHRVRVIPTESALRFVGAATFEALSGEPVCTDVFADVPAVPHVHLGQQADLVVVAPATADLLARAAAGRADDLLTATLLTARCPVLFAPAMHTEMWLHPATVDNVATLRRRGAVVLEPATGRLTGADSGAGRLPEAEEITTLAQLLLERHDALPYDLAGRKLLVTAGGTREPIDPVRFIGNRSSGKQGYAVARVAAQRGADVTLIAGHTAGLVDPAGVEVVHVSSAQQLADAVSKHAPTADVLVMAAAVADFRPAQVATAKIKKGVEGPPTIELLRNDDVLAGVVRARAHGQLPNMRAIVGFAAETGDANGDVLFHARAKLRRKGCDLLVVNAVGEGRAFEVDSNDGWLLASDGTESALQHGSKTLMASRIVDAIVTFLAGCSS
UniProt I6X8D2, whole entry: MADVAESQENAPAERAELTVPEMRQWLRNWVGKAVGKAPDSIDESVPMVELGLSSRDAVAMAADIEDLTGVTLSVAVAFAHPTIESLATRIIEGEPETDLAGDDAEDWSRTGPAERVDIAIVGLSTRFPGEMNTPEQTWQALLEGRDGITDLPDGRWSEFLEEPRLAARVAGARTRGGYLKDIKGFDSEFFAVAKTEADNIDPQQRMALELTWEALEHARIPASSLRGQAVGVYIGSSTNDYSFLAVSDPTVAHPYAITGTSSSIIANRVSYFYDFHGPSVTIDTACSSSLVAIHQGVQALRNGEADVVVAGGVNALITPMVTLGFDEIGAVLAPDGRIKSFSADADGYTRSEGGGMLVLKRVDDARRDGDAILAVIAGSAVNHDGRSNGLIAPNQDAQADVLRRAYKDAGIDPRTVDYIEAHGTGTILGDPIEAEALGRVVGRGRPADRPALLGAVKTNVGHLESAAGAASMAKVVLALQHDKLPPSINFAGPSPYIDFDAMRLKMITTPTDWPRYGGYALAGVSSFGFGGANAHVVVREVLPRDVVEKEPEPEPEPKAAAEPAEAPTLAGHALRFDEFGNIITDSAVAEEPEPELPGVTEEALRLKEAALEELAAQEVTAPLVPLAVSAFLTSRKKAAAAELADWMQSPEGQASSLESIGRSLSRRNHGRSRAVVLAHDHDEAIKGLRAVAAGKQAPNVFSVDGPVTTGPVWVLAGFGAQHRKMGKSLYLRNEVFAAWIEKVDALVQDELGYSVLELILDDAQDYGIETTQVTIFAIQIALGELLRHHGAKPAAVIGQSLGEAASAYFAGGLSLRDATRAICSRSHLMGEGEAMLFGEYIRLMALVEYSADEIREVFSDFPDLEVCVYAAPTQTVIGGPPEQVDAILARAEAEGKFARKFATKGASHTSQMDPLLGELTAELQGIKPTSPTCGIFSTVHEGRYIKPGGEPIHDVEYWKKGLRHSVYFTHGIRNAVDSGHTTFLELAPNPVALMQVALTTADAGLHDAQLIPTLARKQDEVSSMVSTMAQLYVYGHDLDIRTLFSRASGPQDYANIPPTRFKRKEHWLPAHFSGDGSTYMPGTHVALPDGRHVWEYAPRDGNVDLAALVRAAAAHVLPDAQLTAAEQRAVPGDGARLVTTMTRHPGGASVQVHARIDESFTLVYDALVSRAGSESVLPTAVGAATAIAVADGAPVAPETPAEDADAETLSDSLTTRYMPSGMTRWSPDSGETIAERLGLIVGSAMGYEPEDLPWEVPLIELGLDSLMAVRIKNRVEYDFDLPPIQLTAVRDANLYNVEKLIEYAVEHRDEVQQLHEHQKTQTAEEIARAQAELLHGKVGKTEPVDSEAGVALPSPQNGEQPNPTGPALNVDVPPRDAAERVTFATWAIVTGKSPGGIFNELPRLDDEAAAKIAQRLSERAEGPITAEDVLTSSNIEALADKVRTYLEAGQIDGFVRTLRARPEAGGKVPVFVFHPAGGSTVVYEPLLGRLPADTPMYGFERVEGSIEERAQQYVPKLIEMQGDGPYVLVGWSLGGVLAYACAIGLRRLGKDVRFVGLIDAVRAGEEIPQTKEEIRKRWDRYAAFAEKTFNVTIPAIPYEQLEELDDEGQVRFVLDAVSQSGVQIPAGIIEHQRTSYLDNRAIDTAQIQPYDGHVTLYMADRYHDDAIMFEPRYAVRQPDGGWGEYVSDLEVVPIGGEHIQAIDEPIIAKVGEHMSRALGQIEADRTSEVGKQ

The values are deposited in ChEMBL (CHEMBL3988442, “University of Dundee, Small-Polar-MMV Screening Library” (2021)).

Values are the deposited “Percent Effect”, in %. The controls that fix the scale are not given in the record; negative values are as filed. The compounds are a random part of those screened. Two or more numbers in one place are separate tests of the same structure; such repeats can differ widely. A dash means the value is not listed here; it may have been measured.

ClpP1P2: 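Protease assay of ClpP1P2, read by the AMC dye that it sets free. Target: ClpP1P2, Mycobacterium tuberculosis (UniProt P9WPC5 and UniProt P9WPC3). Tested at 50 µM. Higher reads as stronger inhibition, judged from the few compounds that gave an IC50. Most other retested compounds had strongly negative values. Size under these conditions: about 69,000 compounds, about 10 of them at 50% or above in at least one test.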
TcHisRS: 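Histidine-tRNA ligase, Trypanosoma cruzi CL Brener (UniProt Q4DA54). Enzyme assay of histidyl-tRNA synthetase; the read-out is not stated. Compounds at 30 µM. The record gives no direction; compounds that gave an IC50 in retests scored well above the rest, so higher reads as stronger inhibition. About 69,000 compounds were tested under these conditions; 0.045% (about 31) showed 50% or more at least once.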
PfKRS1: 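Enzyme assay of the cytosolic lysyl-tRNA synthetase in 384-well plates, read by luminescence. Target: Lysine-tRNA ligase, Plasmodium falciparum 3D7 (UniProt Q8IDJ8). Compounds at 30 µM. Direction is inferred from only a few compounds that gave an IC50; most scored high, so higher reads as stronger inhibition. Of about 69,000 compounds tested this way, about 49 (0.071%) reached 50% or more in at least one test.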
CoaBC: 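Coenzyme A biosynthesis protein CoaBC, Mycobacterium tuberculosis (UniProt P9WNZ1). Enzyme assay of CoaBC with a phosphate dye (Biomol Green) read at 650 nm. Compounds at 30 µM. Higher reads as stronger inhibition, judged from the few compounds that gave an IC50. Most strong results did not repeat in a second test. About 67,000 compounds were tested under these conditions; 0.06% (about 40) showed 50% or more at least once.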
Leishmania in macrophages: 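Cell assay of Leishmania donovani living inside macrophages; the read-out is not stated. Compounds at 30 µM. Direction is inferred from retests: higher values go with stronger inhibition. Size under these conditions: about 69,000 compounds, about 1,000 of them at 50% or above in at least one test.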
Pks13 thioesterase: 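Polyketide synthase Pks13, Mycobacterium tuberculosis (UniProt I6X8D2). Enzyme assay of the thioesterase domain of polyketide synthase 13; the read-out is not stated. Concentration: 30 µM. Higher reads as stronger inhibition (inferred from which compounds were picked for retests). Size under these conditions: about 67,000 compounds, about 300 of them at 50% or above in at least one test.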

| Compound | ClpP1P2 | TcHisRS | PfKRS1 | CoaBC | Leishmania in macrophages | Pks13 thioesterase |
|---|---|---|---|---|---|---|
| `[H][C@@]12CNC[C@]1([H])N(C(=O)c1ccco1)CCO2` | - | - | - | - | 10.13% | - |
| `COc1cc(N2C[C@@H]3COC[C@]3(COCc3ccncc3)C2)ncn1` | 14.41% | 10.92% | -1.654% | -2.231% | - | -5.905% |
| `Cc1ccc(OCC(=O)NCc2ccco2)nc1` | -22.13% | 2.041% | 0.2514% | 0.1212% | 14.61% | -11.25% |
| `CN(C)C(=O)c1c[nH]nc1-c1ccc(CNC(=O)c2cnccn2)cc1` | -15.13% | 0.3831% | -1.025% | 1.196% | 10.2% | 3.91% |
| `COc1ccc(-c2cc(C3(O)CCCC3)on2)cc1` | 5.344% | -3.627% | 2.776% | -1.235% | -22.33% | 6.273% |
| `CN(C)CCO[C@H]1CN(Cc2cccc(C#N)c2)[C@@H]2COC[C@H]12` | 0.5054% | -14.59% | 4.153% | 2.919% | - | -27.58% |
| `CC(C)c1nnc(CN(C)Cc2ccccc2-c2ccccc2)o1` | 3.784% | 2.062% | 4.664% | -3.803% | 17.05% | 2.594% |
| `COC(=O)C1CCCN1C(=O)c1ccc(Br)cc1F` (configuration not stated) | 12.23% | 5.882% | -1.504% | -3.478% | 3.942% | 7.583% |
| `CC(OCC1CC1)C(=O)Nc1ncccc1I` (configuration not stated) | -7.733% | 7.328% | 7.535% | 0.6337% | -2.14% | -26.29% |
| `O=C(CCc1ccc(Br)cc1F)NS(=O)(=O)c1ccc2c(c1)OCCO2` | 5.753% | -3.383% | 7.67% | -3.916% | 6.255% | 4.19% |
| `COc1c(C2CCCN2C(=O)c2ccc(Cl)o2)c(C)nn1C` (configuration not stated) | 0.7811% | 2.674% | 4.54% | 8.903% | 18.37% | -19.29% |
| `COc1ccc(CN2CCNC(=O)CC2)cc1SC(F)(F)F` | -12.63% | 1.622% | 2.832% | 2.564% | 18.31% | -39.98% |
| `CN(C)Cc1csc(-c2nccn2Cc2ccc(C(=O)O)cc2)c1` | -2.673% | 8.8% | -2.131% | 14.65% | 15.33% | -23.63% |
| `COc1ccc(C[C@H]2CNCC[C@@H]2OC)cc1` | 0.1212% | 2.913% | 4.599% | 1.158% | - | -17.86% |
| `CC(C(=O)NCCc1cccs1)N1CCC(n2ccnc2)CC1` (configuration not stated) | 3.581% | 3.784% | 3.907% | -7.692% | -12.83% | -32.23% |
| `COc1ccc(F)cc1CN1CCCC(c2cc(C(N)=O)[nH]n2)C1` (configuration not stated) | 1.275% | -2.642% | -0.5144% | -2.216% | -1.584% | -17.13% |
| `CNC(=O)C(C)(C)NC(=O)c1cc(COc2ccccc2OC)[nH]n1` | -8.089% | 2.469% | 3.995% | 0.9828% | 13.83% | -2.024% |
| `O=c1oc(-c2ccc(F)cc2)nn1CC1CCCCO1` (configuration not stated) | -6.926% | -0.5952% | -1.122% | -1.583% | -24.26% | 9.867% |
| `c1coc(CN2CC[C@@H]3O[C@@H](COCc4ccncc4)CC[C@@H]32)c1` | 17.43% | 10.05% | 0.4475% | 5.977% | - | -6.045% |
| `COc1ccccc1OCC(=O)n1ncc(C#N)c1N` | -2.134% | 5.419% | 4.907% | -5.161% | 6.809% | 17.39% |
| `N#Cc1ccc(CN2CCN(c3cncc(Cl)n3)CC2=O)cc1` | -11.3% | 8.287% | 2.822% | 7.143% | -20.55% | -8.403% |
| `CN(C)C(=O)CC1CC2(CCN(CC3CC3)CC2)c2cc(F)ccc21` (configuration not stated) | 6.594% | 0.5525% | -10.89% | 11.57% | - | -24.93% |
| `O=C(c1ccon1)N1CCc2ncnc(NCc3cccnc3)c2CC1` | 2.019% | 9.091% | 0.7948% | -0.9756% | -17.99% | -27.9% |
| `CS(=O)(=O)c1cn[nH]c1C1CCCCN1C(=O)c1ccsc1` (configuration not stated) | 8.371% | 3.731% | 0.5146% | 5.596% | 17.3% and 3.349% | -19.42% |
| `COCCN1CCCn2c(nc(CNS(C)(=O)=O)cc2=O)C1` | -9.986% | -0.5025% | 1.329% | 4.579% | - | -19.65% |
| `CN(CC1CN(CCn2cc(C#N)cn2)CCO1)c1cccnn1` (configuration not stated) | -5.027% | 4.706% | 4.692% | -4.668% | 27.71% | 23.92% |
| `Cn1ccnc1C(=O)N1CCOC(Cc2ccccc2Cl)C1` (configuration not stated) | 2.859% | 7.463% | -3.894% | 9.489% | 1.222% and 13.24% | -300.6% |
| `CN1CC(=O)N(c2ccccc2)CC12CCN(C(=O)c1cccs1)C2` (configuration not stated) | 17.35% | 4.202% | 4.843% | 1.826% | - | -4.871% |
| `CSCCC(Nc1nc(C)cc(C)n1)C(=O)NC(C)(C)CO` (configuration not stated) | 8.47% | 9.901% | 1.359% | 0.8505% | -4.466% | -9.001% |
| `CCN(C)c1ncnc2c1CCN(C(=O)N1CCCC1)CC2` | 3.296% | 2.703% | -0.356% | 3.934% | - | 0.3346% |
| `O=C(O)C(F)(F)F.O=C(O)C(F)(F)F.[H][C@@]12C[C@@H](Oc3cncnc3)CN1CCN(c1ncccn1)C2` | - | - | - | - | 14.86% | - |
| `CC(C)S(=O)(=O)NCC1CCCN(C(=O)c2ccc3c(c2)CCC3)C1` (configuration not stated) | -7.063% | 0.8264% | 5.761% | -5.33% | 25.24% | -7.62% |
| `CCCN1CCCN(CCCOc2cccc(C#N)c2)CC1` | 9.109% | 4.202% | 3.028% | -29.44% | 12.46% | -13.11% |
| `[H][C@]12CC[C@]([H])(CN(Cc3ccccc3)C1)N(C(=O)c1ccccc1C#N)C2` | - | - | - | - | 9.813% | - |
| `COC(=O)c1cc(C(=O)N2CCCCC2C)n(-c2ccccc2)n1` (configuration not stated) | -26.85% | 0.5917% | -1.34% | 1.648% | 5.199% | -21.22% |
| `O=C(N1CCCC(n2cncn2)C1)C1(c2ccc(Cl)cc2)CCC1` (configuration not stated) | -51.37% | 8.671% | 0.2634% | 8.557% | 38.31% | -11.44% |
| `Cn1ccc(C(=O)N2CCOC3(COCCN(CC4CC4)C3)C2)n1.O=C(O)C(F)(F)F` (configuration not stated) | - | - | - | - | 44.4% | - |
| `O=C(c1ccc2c(c1)OCO2)N1CCN(c2cnccn2)CC1` | 17.58% | 3.053% | 3.399% | 8.549% | 4.236% | 4.161% |
| `CC(C)NC(=O)[C@@H]1C[C@H](N)CN1C(=O)c1cc2ccccc2[nH]c1=O` | 0.8548% | 3.252% | 0.1524% | 4.641% | 2.227% | 20.69% |
| `CC(C)N(C)C(=O)C1=NOC2(CCN(C(=O)c3ccc(Cl)cc3)C2)C1` (configuration not stated) | 7.102% | 4.959% | -1.566% | 10.54% | -3.232% | -0.5471% |
| `COc1ccc([C@@H]2CN(c3cnccn3)C[C@H]2N(C)C)cc1` | -0.9964% | 10.53% | -1.739% | - | -8.819% | 16.02% |
| `O=C1CCCN1C1CCCN(CCn2cc(Cl)cn2)C1` (configuration not stated) | -7.21% | 8.458% | 3.095% | 8.407% | 11.53% | -8.896% |
| `O=C(CCc1nccs1)N1CCC(N2CCNC2=O)CC1` | 0.6061% | 1.653% | 2.956% | 0.6397% | 19.44% | -12.83% |
| `[H][C@]12CCN(C(=O)NCc3ccccc3)C[C@@]1([H])OCCN(CC)C2` | - | - | - | - | 28.16% | - |
| `Cc1ccc(C(=O)N2CCC(C(F)(F)F)CC2)cc1N1CCNC1=O` | -3.011% | -1.117% | 7.63% | 2.828% | 10.15% | -8.61% |
| `Cc1ccc(NC(=O)Nc2c(O)oc3ccccc3c2=O)cc1C` | -8.162% | 3.125% | 2.659% | 3.571% | 15.48% | 16.9% |
| `Cc1cncc(C(=O)N[C@@H]2CC[C@@H](N3CCOCC3)[C@@H]2O)c1` | 1.19% | 0% | 4.017% | 2.663% | -13.64% and -3.437% | -4.138% |
| `COc1cc(C(=O)N2CC(Oc3ccccc3Cl)C2)ccn1` | -16.5% | 2.381% | 7.491% | -2.206% | -9.011% | -1.625% |
| `CC(C)n1ncc2cc(NC(=O)N3CCC(N4CCCC4)C3)cnc21` (configuration not stated) | 4.871% | -3.448% | 3.064% | 7.757% | 33.98% | -9.058% |
| `CCCc1cc(C(=O)N(Cc2cccnc2)C2CCCCC2)[nH]n1` | -8.538% | 7.831% | -0.3252% | 0.8537% | 24.29% | -35.77% |
| `Cc1cc(C)c(CNC(=O)NCC(O)c2ccccc2F)c(=O)[nH]1` (configuration not stated) | -9.88% | 5.202% | 0.3704% | 2.477% | 15.96% | -16.7% |
| `CCCn1nc2c(cc1=O)CN(CCCN1CCCC1=O)CC2` | -0.5855% | 2.256% | 0.9151% | 3.203% | -6.588% | -2.222% |
| `OCCOCCN1CCCC1c1cccc(Cl)c1` (configuration not stated) | 8.805% | 1.961% | 3.777% | 2.439% | 12.18% | -28.68% |
| `CC(=O)c1cccc(NC(=O)CN2CCCC(C3OCCO3)C2)c1` (configuration not stated) | 15.75% | -1.724% | 3.744% | 1.19% | 22.69% | -10.04% |
| `CSCc1noc(Cn2ncn3cccc3c2=O)n1` | 0.07388% | 9.574% | 8.366% | 0.8032% | 12.69% | -32.98% |
| `CCN(CC)C(=O)[C@@H]1C[C@H](N)CN1c1nnc(-c2ccccc2)s1` | 3.75% | 5.422% | -3.74% | -0.3659% | 17.38% | -0.4398% |
| `CCCOCC(=O)N1CCCC(c2nnc(CN3CCCCC3)n2C)C1` (configuration not stated) | -0.2074% | 2.041% | 5.422% | 7.143% | -18.29% | 3.258% |
| `CCC(NC(=O)CC(F)(F)F)c1ccccc1OCC(=O)N1CCCC1` (configuration not stated) | 17.75% | 6.107% | 1.125% | 1.036% | 21.45% | -9.705% |